Some of the results follow. Most values lie at the level of the controls, where differences are scatter.
These targets were tested with Cc1nc(Nc2ncc(C(=O)Nc3c(C)cccc3Cl)s2)cc(N2CCN(CCO)CC2)n1 [dasatinib] (assay: log2 fold change of tryptic peptide abundance, ligand vs vehicle (limited proteolysis) (log2 ratio); higher = more trypsin-susceptible (destabilized)). Conditions: ligand concentration: 5 uM; sample: K562 cleared lysate.

Amino acid sequences for entries named in this document (tags omitted). A change or cut given only in a name is not applied to a line headed by its entry.
UniProt P45973, whole entry: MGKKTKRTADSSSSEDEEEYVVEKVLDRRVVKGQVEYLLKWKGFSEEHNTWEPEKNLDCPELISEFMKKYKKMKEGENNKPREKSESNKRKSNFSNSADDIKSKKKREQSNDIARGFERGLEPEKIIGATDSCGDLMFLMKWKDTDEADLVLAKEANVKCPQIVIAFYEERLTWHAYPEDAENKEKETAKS
UniProt P38935: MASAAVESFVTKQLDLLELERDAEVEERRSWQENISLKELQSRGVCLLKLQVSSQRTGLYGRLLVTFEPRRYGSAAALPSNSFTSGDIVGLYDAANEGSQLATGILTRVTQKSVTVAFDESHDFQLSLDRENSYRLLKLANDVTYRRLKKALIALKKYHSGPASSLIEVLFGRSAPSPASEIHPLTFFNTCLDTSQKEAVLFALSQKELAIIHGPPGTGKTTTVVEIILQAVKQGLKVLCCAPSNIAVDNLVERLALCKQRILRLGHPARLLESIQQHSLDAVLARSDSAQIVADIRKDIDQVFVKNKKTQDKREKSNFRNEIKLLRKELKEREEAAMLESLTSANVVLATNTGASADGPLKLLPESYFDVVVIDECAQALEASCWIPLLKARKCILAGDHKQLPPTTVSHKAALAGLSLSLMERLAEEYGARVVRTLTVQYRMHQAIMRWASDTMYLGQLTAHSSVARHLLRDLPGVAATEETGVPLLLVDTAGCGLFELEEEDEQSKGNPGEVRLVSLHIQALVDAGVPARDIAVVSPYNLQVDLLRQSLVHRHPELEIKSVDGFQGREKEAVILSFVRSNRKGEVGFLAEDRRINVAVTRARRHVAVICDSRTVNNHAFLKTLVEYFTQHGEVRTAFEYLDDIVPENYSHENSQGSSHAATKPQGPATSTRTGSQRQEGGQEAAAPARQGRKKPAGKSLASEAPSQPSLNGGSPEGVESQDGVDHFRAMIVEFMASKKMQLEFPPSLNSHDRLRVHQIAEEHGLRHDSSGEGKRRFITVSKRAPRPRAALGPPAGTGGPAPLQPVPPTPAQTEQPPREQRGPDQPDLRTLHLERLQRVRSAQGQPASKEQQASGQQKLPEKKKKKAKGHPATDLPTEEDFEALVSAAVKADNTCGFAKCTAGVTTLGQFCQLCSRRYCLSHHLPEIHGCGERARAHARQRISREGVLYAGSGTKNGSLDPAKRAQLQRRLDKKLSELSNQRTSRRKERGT
UniProt P30085: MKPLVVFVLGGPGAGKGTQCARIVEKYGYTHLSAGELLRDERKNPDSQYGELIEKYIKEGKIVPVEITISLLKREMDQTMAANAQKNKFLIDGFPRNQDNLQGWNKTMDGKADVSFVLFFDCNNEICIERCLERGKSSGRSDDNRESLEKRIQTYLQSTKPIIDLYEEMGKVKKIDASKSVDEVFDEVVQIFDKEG
UniProt P33992: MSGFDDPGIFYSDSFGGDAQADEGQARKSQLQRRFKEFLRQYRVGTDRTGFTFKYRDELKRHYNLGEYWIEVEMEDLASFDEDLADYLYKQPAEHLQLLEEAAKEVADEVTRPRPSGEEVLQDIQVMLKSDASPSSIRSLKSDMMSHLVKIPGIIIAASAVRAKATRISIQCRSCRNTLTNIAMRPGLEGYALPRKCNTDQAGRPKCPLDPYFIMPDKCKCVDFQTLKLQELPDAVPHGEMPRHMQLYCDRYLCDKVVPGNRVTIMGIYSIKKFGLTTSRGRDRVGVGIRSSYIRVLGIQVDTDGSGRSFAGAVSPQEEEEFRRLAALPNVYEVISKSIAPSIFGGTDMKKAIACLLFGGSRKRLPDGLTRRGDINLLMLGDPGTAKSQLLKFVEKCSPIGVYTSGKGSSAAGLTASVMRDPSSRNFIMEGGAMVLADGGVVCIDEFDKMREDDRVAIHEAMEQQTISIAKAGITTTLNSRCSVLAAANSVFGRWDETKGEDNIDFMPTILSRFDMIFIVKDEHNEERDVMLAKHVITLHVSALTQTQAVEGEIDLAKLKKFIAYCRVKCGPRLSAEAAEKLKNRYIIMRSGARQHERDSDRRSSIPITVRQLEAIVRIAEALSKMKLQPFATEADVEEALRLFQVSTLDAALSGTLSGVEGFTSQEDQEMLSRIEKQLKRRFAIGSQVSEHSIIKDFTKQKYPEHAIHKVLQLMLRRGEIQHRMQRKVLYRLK
UniProt P37198: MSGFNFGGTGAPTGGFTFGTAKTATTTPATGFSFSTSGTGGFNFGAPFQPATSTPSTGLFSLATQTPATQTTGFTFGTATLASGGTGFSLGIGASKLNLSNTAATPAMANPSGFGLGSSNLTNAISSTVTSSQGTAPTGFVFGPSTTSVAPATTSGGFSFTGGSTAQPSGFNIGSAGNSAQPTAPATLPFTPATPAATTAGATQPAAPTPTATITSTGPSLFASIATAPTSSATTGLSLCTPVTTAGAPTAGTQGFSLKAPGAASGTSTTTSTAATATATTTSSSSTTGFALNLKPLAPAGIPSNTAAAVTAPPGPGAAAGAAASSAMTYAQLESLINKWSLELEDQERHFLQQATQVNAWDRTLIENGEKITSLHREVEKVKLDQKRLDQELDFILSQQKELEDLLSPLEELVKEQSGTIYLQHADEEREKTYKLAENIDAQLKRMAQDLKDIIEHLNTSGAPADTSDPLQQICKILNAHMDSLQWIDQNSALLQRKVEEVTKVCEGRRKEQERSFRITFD
UniProt P37275: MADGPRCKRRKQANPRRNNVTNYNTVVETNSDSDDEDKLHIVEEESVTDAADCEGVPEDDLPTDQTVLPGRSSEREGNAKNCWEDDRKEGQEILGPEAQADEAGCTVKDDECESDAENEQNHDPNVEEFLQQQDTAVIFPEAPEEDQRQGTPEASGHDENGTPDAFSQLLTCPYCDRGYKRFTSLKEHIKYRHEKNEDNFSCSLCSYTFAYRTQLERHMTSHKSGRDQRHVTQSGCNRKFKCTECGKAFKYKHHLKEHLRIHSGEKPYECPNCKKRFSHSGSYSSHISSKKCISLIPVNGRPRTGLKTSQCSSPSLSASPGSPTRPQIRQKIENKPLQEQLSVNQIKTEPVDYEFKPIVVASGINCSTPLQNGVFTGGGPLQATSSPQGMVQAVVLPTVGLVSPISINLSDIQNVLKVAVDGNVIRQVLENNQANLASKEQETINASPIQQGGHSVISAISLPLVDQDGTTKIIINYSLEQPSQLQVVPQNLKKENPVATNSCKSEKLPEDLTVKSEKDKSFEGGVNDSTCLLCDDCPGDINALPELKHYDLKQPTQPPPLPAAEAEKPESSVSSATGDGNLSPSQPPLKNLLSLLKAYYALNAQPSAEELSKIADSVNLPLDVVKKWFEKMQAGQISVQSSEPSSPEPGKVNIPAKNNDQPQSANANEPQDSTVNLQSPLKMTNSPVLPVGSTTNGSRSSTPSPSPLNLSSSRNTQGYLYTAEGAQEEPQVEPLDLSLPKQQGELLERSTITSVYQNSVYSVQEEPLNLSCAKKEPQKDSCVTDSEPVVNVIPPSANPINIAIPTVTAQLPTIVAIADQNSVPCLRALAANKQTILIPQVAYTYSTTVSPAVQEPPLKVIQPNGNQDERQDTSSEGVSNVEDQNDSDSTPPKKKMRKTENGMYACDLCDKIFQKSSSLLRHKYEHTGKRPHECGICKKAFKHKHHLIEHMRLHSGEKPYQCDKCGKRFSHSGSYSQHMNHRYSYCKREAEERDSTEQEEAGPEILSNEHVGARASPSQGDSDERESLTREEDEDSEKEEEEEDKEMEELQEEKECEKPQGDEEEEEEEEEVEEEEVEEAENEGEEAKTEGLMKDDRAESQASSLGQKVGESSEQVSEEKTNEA

Row | Target | log2 fold change
1 | CBX5 (peptide sequence: WKGFSEEHNTWEPEK, peptide start residue: 41) (UniProt P45973) | -0.465
2 | IGHMBP2 (peptide sequence: TLVEYFTQHGEVR, peptide start residue: 625) (UniProt P38935) | 0.117
3 | CMPK1 (peptide sequence: MKPLVVFVLGGPGAGK, peptide start residue: 1) (UniProt P30085) | 0.128
4 | MCM5 (peptide sequence: AIACLLFGGSR, peptide start residue: 352) (UniProt P33992) | -0.111
5 | NUP62 (peptide sequence: RLDQELDFILSQQK, peptide start residue: 388) (UniProt P37198) | -0.0773
6 | RPL35 (peptide sequence: VLTVINQTQKENLRK, peptide start residue: 57) (UniProt P42766) | -0.103
7 | ZEB1 (peptide sequence: VAVDGNVIR, peptide start residue: 418) (UniProt P37275) | 0.259
